From article PMC10163288
This is one part of the list.

B1: il2ra_site2_2erj_sap_21_mot_HHH_b1_08207_af2_000000250_0001_43_57_H_._HHH_b1_04130_af2_0001_0000200012_0000001_0_0001 (protein)
chain: SSSSDELHELFRLANEILHALSRGDEERVRELLEELERLAEEANSDNAKEIVEALEKHLDSSSSS
B2: il2ra_site2_3nfp_sap_16_mot_ems_3hM_1278_af2_000000151_0001_43_60_H_._HHH_b1_08177_0001_0000200024_0000001_0_0001 (protein)
chain: SSSSDAEEAAELLLRKLEELGDEESFEELEELLEKLKETGDPEDLMELYALALEIYKRRHSSSSS
B3: il2ra_site1_3nfp_sap_17_mot_HHH_b1_06312_000000077_0001_1_18_H_._HHH_b2_05980_af2_0001_0000400032_0000001_0_0001_af2pred_0001_af2pred (protein)
chain: SSSSDVEERVKELLEEAKELLEEGNPQEANRVLEEAFRLAKEADDPELTEAVFKVMREAAQSSSS
B4: il2ra_site1_3nfp_sap_19_mot_HHH_b1_07797_af2_000000242_0001_43_57_H_._HHH_b1_05810_af2_0001_0000100011_0000001_0_0001_af2pred_0001_af2pred_1 (protein)
chain: SVEERAEELLEEGNPEEAVKLLLEALKQLGSEAAELLAKRLEELLERGLIPPERVVKRLLRDLKA
B5: il2ra_site1_3nfp_sap_29_mot_HHH_b1_06312_000000077_0001_1_18_H_._HHH_b1_03598_af2_0001_0000100003_0000001_1_0001_af2pred_0001_af2pred_swapped (protein)
chain: DLAEKALKDLIKALKSLGNPELQELAEEIEELRKRNKEEALELALEVARRLGSKVAARLLELLLK
B6: il2ra_site2_2erj_normal_mot_HHH_b1_03752_000000035_0001_21_37_H_._HHH_b1_04771_0001_0000300009_0000001_0 (protein)
chain: SSSSDEEAERLFEELEKLVEEGDQEEVARLLKLLLELSEKLGDPTVVKLAWRALELARLISSSSS
B7: il2ra_site2_3nfp_sap_15_mot_HHH_b1_04032_000000208_0001_43_56_H_._HHH_b1_06394_0001_0000300008_0000001_0_0001_af2pred_0001_1_af2pred_swapped (protein)
chain: SSSSSDEEEEEVERLVEEAKRIEDEEEAERLLLKAATIAAEANDHELFALVTEVMAKLLSSSSSS
B8: il2ra_site1_1z92_sap_15_mot_HHH_b2_03461_af2_000000290_0001_43_55_H_._HHH_b1_08688_0001_0000200013_0000001_0_0001_af2pred_0001_af2pred (protein)
chain: SSSSSSDELERVERLFHEAMRIKDPEEAREVLEEALELAEELGDETARRDIEHILRLLSSSSSSS
B9: il2ra_site2_3nfp_sap_10_mot_HHH_b1_00159_af2_000000185_0001_1_18_H_._HHH_b1_04724_0001_0000900032_0000001_0_0001_af2pred_0001_af2pred (protein)
chain: SSSSSDREVEEEVEELLEEAKRIEDPEEREEVLREAALAAAEAGNQELFMAVVNVIEKLLSSSSS
B10: il2ra_site1_3nfp_sap_18_mot_ems_3hM_2054_af2_000000130_0001_3_20_H_._HHH_b2_07863_0001_0000600021_0000001_0_0001 (protein)
chain: SRILERFVKIARKRGNPEFARVVEILLEVLEQDPRLKRAIDKILFELVSGKLPPEEAEELAKELK
B11: il2ra_site1_3nfp_normal_mot_HHH_b1_00274_000000174_0001_20_36_H_._9f3c0f417c9aa984f1ddc61782894328_0001_0001_0000100010_0000001_0 (protein)
chain: KIEEFLARAVAKAPDPERAARHVIRLLRRAAPDPEIVKEIVERIIELLEELGNPEAAEILRELLK
B12: il2ra_site2_3nfp_sap_10_mot_HHH_b2_00281_af2_000000209_0001_1_18_H_._HHH_b2_08075_af2_0001_0000600013_0000001_0_0001 (protein)
chain: SSSSDEEVEELLKEVEELIKRGNYEEAEKLLQEASHIAWEEGDSELFFRIAELAYEVFRGSSSSS
B13: il2ra_site1_3nfp_sap_13_mot_HHH_b2_06502_000000119_0001_42_55_H_._HHH_b2_07191_af2_0001_0000400036_0000001_0_0001_af2pred_0001_af2pred (protein)
chain: GPEVERRAVRIALEQNSPRLLKKILEDAERFTGDPEEAERWLSELIAEVLKVPPEEAQEIVEEVK
B14: il2ra_site2_3nfp_sap_21_mot_HHH_b2_05281_000000198_0001_39_56_H_._HHH_b1_03483_0001_0000300023_0000001_1_0001 (protein)
chain: SSSSSDELERLAEQALEAAKTVEDPERARLALRLARAHALLNNNEELLEEIEELEKEINSSSSSS
B15: il2ra_site1_1z92_normal_mot_6c2800a769814540b5b47941e710ff28_0001_af2_000000005_0001_35_49_H_._1b31007bc61eb1e0f5007adad2b85f91_0001_1_af2_0001_0000500014_00000 … (protein)
chain: DEELEQLVEEARKYLPPELQRFLEELLELLKKRGDPSFEFLIRQIVKKAKIDPEAARKIVEKMRR
B16: il2ra_site2_3nfp_sap_18_mot_HHH_b1_04032_000000208_0001_43_56_H_._HHH_b1_07268_af2_0001_0000900014_0000001_0_0001 (protein)
chain: SSSSSDEEVEKLLEEAEELLKNGNPEEARRVLLRAFLLAAEERDHELFARLVELFEKIERSSSSS
B17: il2ra_site2_2erj_sap_17_mot_HHH_b2_04919_000000145_0001_20_36_H_._HHH_b1_03436_af2_0001_0000300003_0000001_0_0001 (protein)
chain: SSSSDEDMEFLEELAKEAFENRDRSRLELLIAYLELSLEDTGDPKLEELLRLVQELLERLKSSSS
B18: il2ra_site1_1z92_sap_14_mot_07d2d8a42fb0c6931fb03626c2a0eeb8_0001_000000072_0001_36_50_H_._21a7f3f59e5862fd80bc1ac137a4a28b_0001_1_0001_0000200025_0000001_0_000 … (protein)
chain: SSSDLAEELEELLEEARELDPRARELLELLLRQVRMAEEHGDEKALETARKLIEAKLKTINSSSS
B19: il2ra_site2_3nfp_sap_25_mot_HHH_b2_07498_000000293_0001_1_14_H_._HHH_b1_01574_0001_0000100004_0000001_0_0001_af2pred_0001_1_af2pred_swapped (protein)
chain: SSSSSDEELLEEAKRLLEEGNLEEAFRVLAEAASEAIELGDEELAHEIAALAIEVAEKLGSSSSS

target: il2ra, P01589; test: yeast display titration

Apparent Kd, inactive:
B1 no binding seen
B2 no binding seen
B3 no binding seen
B4 no binding seen
B5 no binding seen
B6 no binding seen
B7 no binding seen
B8 no binding seen
B9 no binding seen
B10 no binding seen
B11 no binding seen
B12 no binding seen
B13 > 1.04 µM
B14 no binding seen
B15 no binding seen
B16 no binding seen
B17 no binding seen
B18 no binding seen
B19 no binding seen

Two records drawn at random from the list so far, as already listed:
Apparent Kd, inactive:
B9 no binding seen
B14 no binding seen
